Measurements as given in PMC12208539.
No constants are given. Whether binding was seen depends on the method and setting. In cells and extracts the contact can be indirect. These calls come from enrichment with a bait or labelling near it, and not all partners need be listed. Where a sequence is shown, tags or fusion partners need not be part of it.

B1: PPIL2 (peptidylprolyl isomerase-like 2) in HEK293T lysate (protein, UniProt Q13356 1-520)
chain: MGKRQHQKDKMYITCAEYTHFYGGKKPDLPQTNFRRLPFDHCSLSLQPFVYPVCTPDGIVFDLLNIVPWLKKYGTNPSNGEKLDGRSLIKLNFSKNSEGKYHCPVLFTVFTNNTHIVAVRTTGNVYAYEAVEQLNIKAKNFRDLLTDEPFSRQDIITLQDPTNLDKFNVSNFYHVKNNMKIIDPDEEKAKQDPSYYLKNTNAETRETLQELYKEFKGDEILAATMKAPEKKKVDKLNAAHYSTGKVSASFTSTAMVPETTHEAAAIDEDVLRYQFVKKKGYVRLHTNKGDLNLELHCDLTPKTCENFIRLCKKHYYDGTIFHRSIRNFVIQGGDPTGTGTGGESYWGKPFKDEFRPNLSHTGRGILSMANSGPNSNRSQFFITFRSCAYLDKKHTIFGRVVGGFDVLTAMENVESDPKTDRPKEEIRIDATTVFVDPYEEADAQIAQERKTQLKVAPETKVKSSQPQAGSQGPQTFRQGVGKYINPAATKRAAEEEPSTSATVPMSKKKPSRGFGDFSSW
B2: CRNKL1 (protein, UniProt Q9BZJ0 1-848)
chain: MTATVENLTFQKDTLGNAVDKNTSRLELRSYSLAGRHGSTEPLVLAWSSQFRRLTWGCALDALHRSPCVAASQHGVTHLIRSSRTPHSTRCRKEDAQPGHHGNGAASVTAQARGQRSVLQVPLPVPRSCLFSESFVVSVSSQSRFLASVPGTGVQRSTAADMAASTAAGKQRIPKVAKVKNKAPAEVQITAEQLLREAKERELELLPPPPQQKITDEEELNDYKLRKRKTFEDNIRKNRTVISNWIKYAQWEESLKEIQRARSIYERALDVDYRNITLWLKYAEMEMKNRQVNHARNIWDRAITTLPRVNQFWYKYTYMEEMLGNVAGARQVFERWMEWQPEEQAWHSYINFELRYKEVDRARTIYERFVLVHPDVKNWIKYARFEEKHAYFAHARKVYERAVEFFGDEHMDEHLYVAFAKFEENQKEFERVRVIYKYALDRISKQDAQELFKNYTIFEKKFGDRRGIEDIIVSKRRFQYEEEVKANPHNYDAWFDYLRLVESDAEAEAVREVYERAIANVPPIQEKRHWKRYIYLWINYALYEELEAKDPERTRQVYQASLELIPHKKFTFAKMWILYAQFEIRQKNLSLARRALGTSIGKCPKNKLFKVYIELELQLREFDRCRKLYEKFLEFGPENCTSWIKFAELETILGDIDRARAIYELAISQPRLDMPEVLWKSYIDFEIEQEETERTRNLYRRLLQRTQHVKVWISFAQFELSSGKEGSLTKCRQIYEEANKTMRNCEEKEERLMLLESWRSFEEEFGTASDKERVDKLMPEKVKKRRKVQTDDGSDAGWEEYFDYIFPEDAANQPNLKLLAMAKLWKKQQQEKEDAEHHPDEDVDESES

Experiments:
[1] = molecular target: T1, BirA-fusion PLEK2 (UniProt Q9NYT0); assay: proximity labelling; biotin conjugation by BirA-fusion PLEK2 in HEK293T cells, streptavidin pulldown of the lysate, Western blotting
T1 sequence: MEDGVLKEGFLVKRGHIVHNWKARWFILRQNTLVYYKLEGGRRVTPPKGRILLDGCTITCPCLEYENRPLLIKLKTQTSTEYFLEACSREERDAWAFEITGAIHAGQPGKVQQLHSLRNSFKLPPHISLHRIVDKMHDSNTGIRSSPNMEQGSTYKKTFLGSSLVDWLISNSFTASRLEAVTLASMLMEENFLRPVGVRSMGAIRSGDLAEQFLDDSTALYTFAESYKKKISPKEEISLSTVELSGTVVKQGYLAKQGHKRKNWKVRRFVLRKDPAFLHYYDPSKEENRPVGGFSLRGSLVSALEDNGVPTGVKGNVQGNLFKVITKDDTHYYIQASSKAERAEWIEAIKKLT

[2] = molecular target: T2, Flag-PPIL2 (UniProt Q13356); assay: affinity purification with mass spectrometry; IP of Flag-tagged PPIL2, Coomassie stain, mass spectrometry
T2 sequence: B1 chain

| Binder | binding [1] | binding [2] |
| --- | --- | --- |
| B1 | binds | – |
| B2 | – | binds |
